From the supplement of paper PMC10849652
The other results are listed elsewhere or left out.

By UniProt entry, the sequences of proteins in these tests, tags left out. Where a name states a change or a piece, a line headed by the entry shows the natural chain unless it says otherwise.
UniProt Q86YS6: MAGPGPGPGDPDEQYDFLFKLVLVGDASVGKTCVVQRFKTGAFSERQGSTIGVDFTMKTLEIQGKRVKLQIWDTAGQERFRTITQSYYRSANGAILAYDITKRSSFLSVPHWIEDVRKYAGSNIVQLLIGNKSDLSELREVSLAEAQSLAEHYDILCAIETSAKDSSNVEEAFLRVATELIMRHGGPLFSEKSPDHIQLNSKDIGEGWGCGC
UniProt Q86X10: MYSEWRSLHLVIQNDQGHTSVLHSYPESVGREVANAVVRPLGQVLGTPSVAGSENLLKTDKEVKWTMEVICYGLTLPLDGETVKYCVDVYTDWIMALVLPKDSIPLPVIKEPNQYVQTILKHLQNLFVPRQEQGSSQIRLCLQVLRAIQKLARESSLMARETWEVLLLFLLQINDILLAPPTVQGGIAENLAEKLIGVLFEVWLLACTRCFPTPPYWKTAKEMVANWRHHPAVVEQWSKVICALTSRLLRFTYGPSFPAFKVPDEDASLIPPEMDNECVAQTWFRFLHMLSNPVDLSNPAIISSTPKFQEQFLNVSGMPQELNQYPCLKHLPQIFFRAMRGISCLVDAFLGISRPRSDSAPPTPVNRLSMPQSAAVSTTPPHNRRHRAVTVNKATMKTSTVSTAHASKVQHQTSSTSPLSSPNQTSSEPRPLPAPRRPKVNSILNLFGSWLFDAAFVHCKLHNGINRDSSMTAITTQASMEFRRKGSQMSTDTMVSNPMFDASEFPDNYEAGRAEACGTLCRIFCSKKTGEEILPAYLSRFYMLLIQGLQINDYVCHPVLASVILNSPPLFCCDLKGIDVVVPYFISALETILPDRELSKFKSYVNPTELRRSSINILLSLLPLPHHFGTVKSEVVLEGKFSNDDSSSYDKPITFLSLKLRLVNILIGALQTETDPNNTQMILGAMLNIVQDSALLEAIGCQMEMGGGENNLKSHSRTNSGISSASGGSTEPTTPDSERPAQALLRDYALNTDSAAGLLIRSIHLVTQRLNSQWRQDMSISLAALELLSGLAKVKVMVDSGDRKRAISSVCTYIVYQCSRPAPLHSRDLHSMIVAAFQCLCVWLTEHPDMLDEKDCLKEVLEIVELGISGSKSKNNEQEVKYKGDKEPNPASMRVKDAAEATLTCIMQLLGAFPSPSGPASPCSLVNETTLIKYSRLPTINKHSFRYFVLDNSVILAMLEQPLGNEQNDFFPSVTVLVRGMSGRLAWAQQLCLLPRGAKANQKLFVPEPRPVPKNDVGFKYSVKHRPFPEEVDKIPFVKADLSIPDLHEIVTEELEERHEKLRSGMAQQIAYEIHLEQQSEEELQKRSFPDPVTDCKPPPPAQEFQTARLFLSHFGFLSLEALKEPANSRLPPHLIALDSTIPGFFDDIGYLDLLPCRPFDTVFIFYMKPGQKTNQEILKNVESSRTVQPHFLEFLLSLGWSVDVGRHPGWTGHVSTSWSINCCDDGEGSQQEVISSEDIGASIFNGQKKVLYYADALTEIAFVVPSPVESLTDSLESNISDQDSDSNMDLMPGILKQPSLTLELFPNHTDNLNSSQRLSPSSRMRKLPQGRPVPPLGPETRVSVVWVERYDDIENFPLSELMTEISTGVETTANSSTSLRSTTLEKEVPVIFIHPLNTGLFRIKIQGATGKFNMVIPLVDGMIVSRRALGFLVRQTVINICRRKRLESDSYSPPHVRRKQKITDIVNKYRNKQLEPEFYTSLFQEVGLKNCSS
UniProt P54725: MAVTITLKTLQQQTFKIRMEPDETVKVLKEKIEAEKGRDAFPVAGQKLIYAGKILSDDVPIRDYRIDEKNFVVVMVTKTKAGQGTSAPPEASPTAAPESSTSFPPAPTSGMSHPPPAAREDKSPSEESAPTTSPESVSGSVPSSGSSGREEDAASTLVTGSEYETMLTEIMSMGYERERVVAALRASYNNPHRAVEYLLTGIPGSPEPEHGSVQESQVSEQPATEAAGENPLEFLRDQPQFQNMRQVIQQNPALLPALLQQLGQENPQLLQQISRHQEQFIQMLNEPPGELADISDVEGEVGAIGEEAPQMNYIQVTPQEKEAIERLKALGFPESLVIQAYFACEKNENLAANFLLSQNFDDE
UniProt P61224: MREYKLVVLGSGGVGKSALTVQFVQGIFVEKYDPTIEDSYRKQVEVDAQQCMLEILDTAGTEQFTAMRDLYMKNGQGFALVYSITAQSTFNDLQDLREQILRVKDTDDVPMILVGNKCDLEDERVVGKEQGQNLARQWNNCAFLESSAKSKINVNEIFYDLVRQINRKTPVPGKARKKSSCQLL
UniProt O00391: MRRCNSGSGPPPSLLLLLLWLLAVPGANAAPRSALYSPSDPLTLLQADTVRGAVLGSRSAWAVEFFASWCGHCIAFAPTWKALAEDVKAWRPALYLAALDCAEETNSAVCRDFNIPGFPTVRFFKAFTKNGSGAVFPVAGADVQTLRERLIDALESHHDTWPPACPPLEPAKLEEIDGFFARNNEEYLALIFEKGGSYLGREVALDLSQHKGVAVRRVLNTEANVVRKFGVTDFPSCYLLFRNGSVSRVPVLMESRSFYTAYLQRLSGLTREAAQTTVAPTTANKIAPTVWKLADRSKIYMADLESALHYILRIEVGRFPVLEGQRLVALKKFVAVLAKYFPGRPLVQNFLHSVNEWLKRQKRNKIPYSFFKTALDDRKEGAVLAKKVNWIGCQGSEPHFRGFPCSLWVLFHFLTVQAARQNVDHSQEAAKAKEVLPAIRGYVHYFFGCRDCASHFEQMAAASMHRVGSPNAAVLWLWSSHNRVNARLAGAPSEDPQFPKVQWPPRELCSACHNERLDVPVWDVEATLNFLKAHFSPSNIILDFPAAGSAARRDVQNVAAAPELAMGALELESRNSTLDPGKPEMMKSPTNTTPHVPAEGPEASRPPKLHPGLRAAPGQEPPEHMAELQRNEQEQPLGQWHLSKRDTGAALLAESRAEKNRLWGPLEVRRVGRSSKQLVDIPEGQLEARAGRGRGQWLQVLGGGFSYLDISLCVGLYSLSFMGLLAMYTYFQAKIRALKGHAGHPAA
UniProt Q2PPJ7: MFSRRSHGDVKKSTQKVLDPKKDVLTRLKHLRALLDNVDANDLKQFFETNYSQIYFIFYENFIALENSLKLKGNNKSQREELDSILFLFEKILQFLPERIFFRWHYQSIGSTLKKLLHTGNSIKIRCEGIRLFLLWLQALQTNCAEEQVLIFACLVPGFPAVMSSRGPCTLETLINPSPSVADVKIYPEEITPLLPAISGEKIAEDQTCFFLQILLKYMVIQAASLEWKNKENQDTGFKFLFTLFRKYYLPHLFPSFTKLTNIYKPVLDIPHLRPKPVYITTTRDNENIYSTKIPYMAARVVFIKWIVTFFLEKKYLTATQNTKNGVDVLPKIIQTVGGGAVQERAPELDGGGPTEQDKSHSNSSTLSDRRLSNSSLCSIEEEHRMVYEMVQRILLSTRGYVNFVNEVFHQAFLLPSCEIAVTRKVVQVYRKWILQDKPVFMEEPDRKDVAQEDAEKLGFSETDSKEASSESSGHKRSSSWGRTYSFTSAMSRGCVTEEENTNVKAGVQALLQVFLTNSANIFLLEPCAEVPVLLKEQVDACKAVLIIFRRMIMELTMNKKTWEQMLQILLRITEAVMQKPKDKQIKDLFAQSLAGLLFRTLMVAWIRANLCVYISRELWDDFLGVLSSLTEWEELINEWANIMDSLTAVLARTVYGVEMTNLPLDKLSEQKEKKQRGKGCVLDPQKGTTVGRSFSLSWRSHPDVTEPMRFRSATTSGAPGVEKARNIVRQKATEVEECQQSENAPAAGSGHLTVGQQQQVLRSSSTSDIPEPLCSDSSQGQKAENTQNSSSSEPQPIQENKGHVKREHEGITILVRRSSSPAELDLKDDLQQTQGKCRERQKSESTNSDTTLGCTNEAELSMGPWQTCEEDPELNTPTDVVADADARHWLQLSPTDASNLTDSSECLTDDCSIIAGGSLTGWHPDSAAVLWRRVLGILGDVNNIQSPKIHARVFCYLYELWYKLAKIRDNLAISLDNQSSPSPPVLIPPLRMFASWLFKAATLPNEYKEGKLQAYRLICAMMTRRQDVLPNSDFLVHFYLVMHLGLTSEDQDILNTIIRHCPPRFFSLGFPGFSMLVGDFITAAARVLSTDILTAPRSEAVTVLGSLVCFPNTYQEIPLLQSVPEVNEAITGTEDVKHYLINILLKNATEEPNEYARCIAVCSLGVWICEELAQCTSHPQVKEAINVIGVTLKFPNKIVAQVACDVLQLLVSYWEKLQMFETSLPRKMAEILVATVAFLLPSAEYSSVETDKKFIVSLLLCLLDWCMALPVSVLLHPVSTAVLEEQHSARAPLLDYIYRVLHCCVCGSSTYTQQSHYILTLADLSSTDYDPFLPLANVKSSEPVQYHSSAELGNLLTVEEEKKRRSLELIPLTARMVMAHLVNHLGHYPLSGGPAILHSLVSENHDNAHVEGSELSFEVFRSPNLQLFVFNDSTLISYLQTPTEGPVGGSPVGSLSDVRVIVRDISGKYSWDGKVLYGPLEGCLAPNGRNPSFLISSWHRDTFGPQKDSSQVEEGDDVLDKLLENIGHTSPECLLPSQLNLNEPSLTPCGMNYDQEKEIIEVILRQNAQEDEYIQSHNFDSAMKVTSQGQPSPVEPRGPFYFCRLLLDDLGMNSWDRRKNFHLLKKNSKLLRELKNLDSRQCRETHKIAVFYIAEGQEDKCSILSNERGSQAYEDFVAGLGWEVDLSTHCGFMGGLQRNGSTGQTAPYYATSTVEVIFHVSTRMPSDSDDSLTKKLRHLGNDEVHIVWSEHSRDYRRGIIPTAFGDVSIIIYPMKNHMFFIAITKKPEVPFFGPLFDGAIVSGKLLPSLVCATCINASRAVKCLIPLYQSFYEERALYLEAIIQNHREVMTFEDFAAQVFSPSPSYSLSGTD
UniProt Q9H6Z4: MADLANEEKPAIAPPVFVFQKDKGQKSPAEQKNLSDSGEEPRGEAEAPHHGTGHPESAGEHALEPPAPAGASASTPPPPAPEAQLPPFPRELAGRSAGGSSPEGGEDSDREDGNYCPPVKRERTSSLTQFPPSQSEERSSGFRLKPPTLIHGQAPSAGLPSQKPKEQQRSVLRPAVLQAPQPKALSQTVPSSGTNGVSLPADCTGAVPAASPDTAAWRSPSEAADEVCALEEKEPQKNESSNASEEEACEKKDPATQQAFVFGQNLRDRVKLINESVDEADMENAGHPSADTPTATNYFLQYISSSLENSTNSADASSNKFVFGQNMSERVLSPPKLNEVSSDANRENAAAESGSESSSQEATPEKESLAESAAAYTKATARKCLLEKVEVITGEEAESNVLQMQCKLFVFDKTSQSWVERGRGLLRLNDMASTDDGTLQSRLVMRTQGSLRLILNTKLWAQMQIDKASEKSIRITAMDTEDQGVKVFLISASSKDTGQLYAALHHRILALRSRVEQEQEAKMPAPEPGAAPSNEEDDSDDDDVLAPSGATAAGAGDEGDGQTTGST
UniProt Q6K0P9: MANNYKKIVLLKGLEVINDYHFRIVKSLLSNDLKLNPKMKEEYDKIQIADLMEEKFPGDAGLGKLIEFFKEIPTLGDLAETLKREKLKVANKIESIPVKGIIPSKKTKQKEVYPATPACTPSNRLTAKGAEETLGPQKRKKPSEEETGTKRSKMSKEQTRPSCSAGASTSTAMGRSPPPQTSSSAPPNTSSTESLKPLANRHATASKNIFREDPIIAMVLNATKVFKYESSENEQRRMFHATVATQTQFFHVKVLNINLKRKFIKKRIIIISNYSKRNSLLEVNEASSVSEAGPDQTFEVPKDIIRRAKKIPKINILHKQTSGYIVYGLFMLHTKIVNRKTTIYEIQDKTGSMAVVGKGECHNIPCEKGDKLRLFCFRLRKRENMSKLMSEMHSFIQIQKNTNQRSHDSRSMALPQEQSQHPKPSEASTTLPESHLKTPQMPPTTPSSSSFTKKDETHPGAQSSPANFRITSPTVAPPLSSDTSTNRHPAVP

How the values were obtained:
Experiment in all cases: log2 fold change, soluble protein after heating vs DMSO (PISA); higher = thermal stabilisation; K562 lysate, 10 uM; active = over 0.2 and 3.5 SD of the protein, either way, in both replicates (recomputed)
vorinostat = compound: O=C(CCCCCCC(=O)Nc1ccccc1)NO [vorinostat]
In short: (§1)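 Values give the log-two fold change in thermal stability against solvent controls, from duplicates. Crude K562 extract at 1 mg/mL protein, made by dounce homogenisation in PBS pH 7.4 with 1 mM MgCl2, was treated with 10 μM compound for 30 min. After 3 min heating across 48°C-58°C, aliquots were pooled, adjusted to 0.5% NP-40 at 4°C and centrifuged at 21,000xg for 90 min. The supernatant was measured by TMTpro 16plex LC-MS/MS with channel sums equalised.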

silmitasertib = compound: O=C(O)c1ccc2c(c1)nc(Nc1cccc(Cl)c1)c1ccncc12 [silmitasertib]
In short: as §1

entospletinib = compound: c1cn2cc(-c3ccc4cn[nH]c4c3)nc(Nc3ccc(N4CCOCC4)cc3)c2n1 [entospletinib]
In short: as §1

[1] = compound: O=C1NC(=O)C(c2cnc3ccccn23)=C1c1cn2c3c(cc(F)cc13)CN(C(=O)N1CCCCC1)CC2
In short: as §1

[2] = compound: NCC(=O)Nc1ccc(-n2nc(C(F)(F)F)cc2-c2ccc3c(ccc4ccccc43)c2)cc1
In short: as §1

| Target | log2 fold change (vorinostat) | log2 fold change (silmitasertib) | log2 fold change (entospletinib) | log2 fold change [1] | log2 fold change [2] |
| --- | --- | --- | --- | --- | --- |
| RAB43 (UniProt Q86YS6) | inactive: 0.045 | inactive: -0.015 | inactive: 0.029 |  |  |
| RALGAPB isoform 3 (UniProt Q86X10) |  |  | inactive: -0.045 |  |  |
| RAD23A isoform 3 (UniProt P54725) | inactive: 0.46 | inactive: -0.084 |  |  |  |
| RAB11FIP5, A0A1B0GTL5 | inactive: 0 | inactive: -0.134 |  | inactive: -0.293 |  |
| RAP1B (UniProt P61224) | inactive: 0.078 | inactive: -0.036 | inactive: -0.012 | inactive: -0.024 | inactive: 0.048 |
| QSOX1 (UniProt O00391) | inactive: 0.139 | inactive: 0.005 | inactive: -0.029 | inactive: -0.054 |  |
| RALGAPA2 (UniProt Q2PPJ7) |  |  |  | inactive: -0.011 |  |
| RANBP3 isoform 2 (UniProt Q9H6Z4) |  |  | inactive: -0.016 | inactive: 0.006 | inactive: 0.203 |
| PYHIN1 (UniProt Q6K0P9) |  |  |  | inactive: 0.218 |  |
